The nature of this test: qHTS Assay to Find Inhibitors of Chronic Active B-Cell Receptor Signaling. To be noted: ABC-DLBCL IkBa-CBG/CBR reporter, luminescence ratio (green luciferase fused to IkBa over red control in TMD8 lymphoma cells), 4 h. An outline of the steps:
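TMD8 human ABC-DLBCL cells with doxycycline-inducible IκBα–green luciferase fusion and unfused red luciferase, in 0.5% FBS medium; compounds up to 46 uM, 4 h at 37C. Green/red luminescence ratio, filter-overlap corrected, fitted to concentration-response curves.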

Setting [1] is: measured here: CBR red luminescence, cell number.
[2] abbreviates: measured here: IkBa-CBG green luminescence.

Each structure is given as a SMILES string. The list shows a part of the results. The main result of the screen is listed elsewhere. These columns were measured beside it and carry no call. The list favours compounds with an active or inconclusive main result. Words in brackets tell the shape of the fitted curve; partial curves, single points and poor fits give uncertain potencies.

In the case of `COc1ccnc(-n2cccc2C#N)c1C#N`, the half-maximal activity concentration (AC50) under setting [1] is 4.47 µM [rising, partial curve, poor fit].
The same measure, in the same setting: the same measure for `O=C(O)C1CCN(C(=O)CCN2C(=O)S/C(=C\c3ccccc3)C2=O)CC1`: 4.47 µM [falling, single point]; for `Cc1cc2ccccc2nc1SCC(=O)Nc1nc(-c2ccccc2)cs1`: 0.891 µM [falling, full curve].
The same measure, in the same setting: for `Cc1cccc(C(=O)Nc2sc(C)c(-c3ccccc3)c2C#N)c1` the value was 1 µM [rising, full curve]; for `C=CCN1C(=O)CSc2ccc(C(=O)NCc3cccs3)cc21`, 14.1 µM [falling, single point]; for `Cc1ccc(-n2c(SCc3cn4ccsc4n3)nc3ccccc3c2=O)cc1`, 0.58 µM [rising, full curve, poor fit].
The same measure, in the same setting: for `Cc1ccc(/C=N/NC(=O)c2ccoc2C)s1` the value was 16.4 µM [falling, partial curve]; for `O=C(Nc1cccnc1)c1ccc(Br)s1`, 0.731 µM [rising, partial curve, poor fit]; for `O=CC1=C(c2ccccc2)Oc2ccccc2O1`, 35.5 µM [falling, single point].
For `Fc1ccc(N=c2ssnc2Cl)c(F)c1`, the AC50 under setting [1] is 15.8 µM [falling, single point].
The same measure, in the same setting: the same measure for `CC(Sc1nnc(NCc2ccccc2)s1)C(=O)Nc1ccc2c(c1)C(=O)c1ccccc1C2=O` (configuration not stated): 18.4 µM [falling, single point]; for `Cc1c(C(=O)Nc2nnc(SCc3ccccc3Cl)s2)cccc1[N+](=O)[O-]`: 6.51 µM [rising, full curve, poor fit].
The same measure, in the same setting: the same measure for `O=C(NCc1ccc2c(c1)OCO2)c1cc(-c2ccccc2Cl)on1`: 10 µM [falling, partial curve, poor fit].
Still for that read-out and setting: the same measure for `Cc1cc(C)nc(N(C#N)Cc2cccc3ccccc23)n1`: 29.1 µM [falling, single point]; for `N/C(=N\OC(=O)c1ccc(Cl)c(Cl)c1)c1cccnc1`: 0.058 µM [rising, full curve, poor fit].
On to `COc1ccccc1N1CCN(c2nc3ccccn3c(=O)c2C=O)CC1`, for which the AC50 by setting is: under setting [1], 29.1 µM [rising, single point]; under setting [2], 18.4 µM [falling, partial curve, poor fit].
On to `Cc1ccc(-n2c(SCC(=O)N3CCN(c4ccccn4)CC3)nnc2N2CCCC2)cc1`, for which the AC50 under setting [1] is 3.26 µM [rising, full curve, poor fit].
The same measure, in the same setting: for `COc1ccc(C(=O)Nc2ccc3c(c2)OCCO3)cc1[N+](=O)[O-]` the value was 0.708 µM [falling, full curve, poor fit]; for `O=C(Nc1ccc(NC(=O)c2ccccc2Cl)nc1)c1ccco1`, 15.8 µM [falling, partial curve]; for `CCOC(=O)c1ccc(NC(=S)NC(=O)COc2ccccc2)cc1`, 29.1 µM [rising, single point].
On the same count and under the same terms, for `O=C(N/N=C/c1ccccn1)c1cc(-c2ccc3ccccc3c2)n[nH]1` the value was 18.4 µM [rising, single point].
The same measure, in the same setting: for `CCN(CC(=O)Nc1ccc2c(c1)OCCO2)C(=O)c1ccc(Cl)cc1Cl` the value was 9.2 µM [rising, partial curve, poor fit]; for `C[C@H](CO)N1C[C@H](C)[C@@H](CN(C)C(=O)NC2CCCCC2)Oc2ccc(NS(=O)(=O)c3cccs3)cc2C1=O`, 29.1 µM [rising, single point].
For `Cn1c(=N)n(CC(O)c2ccco2)c2ccccc21` (configuration not stated), the AC50 under setting [1] was 35.5 µM [falling, partial curve, poor fit].
Regarding `CC(c1ccon1)N(C)C(=O)CCc1nnc(Cc2ccc(-c3ccccc3)cc2)o1` (configuration not stated), the concentration at half-maximal activity (AC50) under setting [1] is 35.5 µM [falling, single point].
As to `CN(C)c1ccc(/C=N/NC(=O)c2ccn(C)n2)cc1`, the AC50 under setting [1] was 5.62 µM [falling, partial curve].
The same measure, in the same setting: for `c1cncc(-c2nc(NCCCn3ccnc3)c3ccccc3n2)c1` the value was 8.91 µM [falling, partial curve].
Take `CC/C(=N\NC(=O)c1cc(C)nc2ccccc12)c1ccc(C)s1`: under setting [1], the concentration at half-maximal activity (AC50) was 10.3 µM [rising, partial curve].
The same measure, in the same setting: for `CCCOc1cccc(C(=O)NC(=S)Nc2cccc(NC(=O)c3ccccc3Cl)c2)c1` the value was 2.31 µM [falling, full curve, poor fit]; for `CN(CC(=O)Nc1ccccc1C(=O)Nc1ccccc1)C1CCCCC1`, 20.6 µM [rising, single point]; for `CC(=C/c1ccccc1)/C=N/NC(=O)c1cccs1`, 11.2 µM [falling, partial curve, poor fit].
Same read-out and setting: for `O=C(CC1SC(=O)N(c2ccccc2)C1=O)Nc1ccccc1` (configuration not stated) the value was 11.2 µM [falling, partial curve, poor fit]; for `Cc1ccc2nc(N(Cc3cccnc3)C(=O)c3cccs3)sc2c1`, 0.891 µM [falling, full curve, poor fit]; for `CC(C)N(CC#CC(O)(c1ccccc1)c1ccccc1)C(C)C`, 1.26 µM [falling, full curve, poor fit].
The same measure, in the same setting: the same measure for `O=C(/C=C/c1cccc([N+](=O)[O-])c1)OCC(=O)c1ccccc1`: 10 µM [rising, partial curve, poor fit].
Regarding `COc1ccc(CN2C(=O)C(C)Nc3ncnc(N4CCOCC4)c32)cc1` (configuration not stated), the AC50 is, setting by setting: under setting [1], 29.1 µM [rising, single point]; under setting [2], 29.1 µM [falling, single point].
For `COc1ccc(CNc2ccc([N+](=O)[O-])cc2C)cc1`, under setting [1], the AC50 was 1.78 µM [rising, full curve, poor fit].
Same read-out and setting: for `COC(=O)COc1cccc(NC(=O)c2ccc(C)cc2)c1` the value was 20 µM [falling, single point]; for `COCCNC(=O)/C(C#N)=C/c1cccc(NC(=O)c2ccccc2Cl)c1`, 8.2 µM [falling, partial curve].
Still for that read-out and setting: for `Cc1occc1C(=O)Nc1ccc2c(c1)OCCO2` the value was 10 µM [falling, partial curve].
Turning to `COc1cc(OC)cc(C(=O)NNC(=O)NC2CCCCC2)c1`, the AC50 by setting is: under setting [1], 4.11 µM [falling, partial curve, poor fit]; under setting [2], 32.6 µM [falling, partial curve, poor fit].
Consider `Cn1c(N)c(C(=O)COC(=O)CCC2CCCC2)c(=O)n(C)c1=O`, for which the half-maximal activity concentration (AC50) under setting [2] was 3.98 µM [rising, full curve, poor fit].
For the compound `Cc1ccc2nc3c(cc(S(=O)(=O)c4ccccc4)c(=N)n3Cc3ccco3)c(=O)n2c1`, under setting [1], the half-maximal activity concentration (AC50) was 25.1 µM [falling, single point].
Still for that read-out and setting: for `CCC(C)(C)NC(=O)C(OC(=O)c1ccco1)c1ccccc1OC` (configuration not stated) the value was 13 µM [rising, single point]; for `COc1ccc2sc(N(CCN(C)C)C(=O)/C=C/c3cccs3)nc2c1`, 35.5 µM [falling, single point].
Still for that read-out and setting: the same measure for `CCCC[C@@H]1CN=C(N)N1CCc1cc(C(F)(F)F)cc(C(F)(F)F)c1`: 11.2 µM [falling, single point]; for `CC(C)C(NC(=O)c1ccc(S(=O)(=O)N2CCOCC2)cc1)c1nc2ccccc2[nH]1` (configuration not stated): 0.708 µM [rising, partial curve, poor fit].
With `O=C1NCCN1Cc1ccc(F)cc1`, the AC50 under setting [1] was 29.1 µM [rising, single point].
Still for that read-out and setting: for `O=c1cc2oc3cc(O)c(O)cc3c(-c3ccccc3O)c-2cc1O` the value was 35.5 µM [rising, partial curve, poor fit]; for `COC(=O)c1ccccc1S(=O)(=O)N1CCC(C(=O)NC2CCCCC2)CC1`, 0.231 µM [rising, full curve, poor fit].
The same measure, in the same setting: the same measure for `c1ccc(-c2csc(-c3ccncc3)n2)cc1`: 8.91 µM [rising, partial curve]; for `COc1ccc2c(c1)c1nc3ccccc3nc1n2CCn1c(=O)oc2ccccc21`: 25.9 µM [rising, single point].
The same measure, in the same setting: for `COc1ccc(-c2[nH]ncc2CN(CC2CCC(=O)N2)C(C)C)cc1F` (configuration not stated) the value was 3.55 µM [falling, single point]; for `CCCS(=O)(=O)N1CCN(C2Cc3ccccc3C2)CC1`, 35.5 µM [rising, partial curve, poor fit].
Take `CC(C)(C)c1ccc(S(=O)(=O)N2CCN(c3ncccn3)CC2)cc1`: under setting [1], the AC50 was 0.1 µM [rising, full curve, poor fit].
Regarding `O=c1[nH]c(CS(=O)(=O)c2ccccc2)nc2ccccc12`, the AC50 under setting [1] was 18.4 µM [falling, partial curve].
As to `CN1CCc2cccc3c2[C@@H]1Cc1ccc(O)c(O)c1-3`, the AC50 under setting [2] was 1.84 µM [falling, partial curve, poor fit].
In the case of `CCN1CCC(CNCc2cn(-c3ccc(OC)cc3)nc2-c2ccccc2Cl)C1` (configuration not stated), the AC50 under setting [1] was 25.1 µM [falling, single point].
On to `O=[N+]([O-])c1ccc(O)c(C=Nc2ccc3c(c2)OCO3)c1`, for which the AC50 under setting [1] is 8.91 µM [falling, partial curve, poor fit].
Same read-out and setting: for `CC(C)C[C@H](CO)Nc1nc(N(C)c2cccc(Cl)c2)c2ncn(C(C)C)c2n1` the value was 0.562 µM [falling, full curve, poor fit]; for `Cc1c(C(=O)O)oc2ccc(S(=O)(=O)N3CCC(C)CC3)cc12`, 14.6 µM [falling, partial curve, poor fit].
Consider `O=C(Nc1ccc(N2CCOCC2)c(Cl)c1)c1ccc(Br)o1`, for which, under setting [1], the half-maximal activity concentration (AC50) was 29.1 µM [falling, single point].
With `Cc1c(C#N)c(O)[nH]c(=O)c1N=Nc1ccc(Br)cc1C(=O)O`, the concentration at half-maximal activity (AC50) under setting [1] is 17.8 µM [falling, single point].
On to `COc1ccc(C(C)C)cc1S(=O)(=O)N1CCC(C(=O)NCC2CCCO2)CC1` (configuration not stated), for which the AC50 under setting [1] was 0.501 µM [rising, full curve].

What is called AC50 is the midpoint of the concentration-response curve, whichever way the signal moves.
